Test results published in the supplement of paper PMC12067093, “Discovery and optimisation of a covalent ligand for TRIM25 and its application to targeted protein ubiquitination” (Chemical Science, 2025).
Some of the results follow.

Chains of the proteins cited; added tags and fusions are not shown. Lines headed by an entry give the natural chain unless they say otherwise; changes in a name come on top.
UniProt Q9NQ34: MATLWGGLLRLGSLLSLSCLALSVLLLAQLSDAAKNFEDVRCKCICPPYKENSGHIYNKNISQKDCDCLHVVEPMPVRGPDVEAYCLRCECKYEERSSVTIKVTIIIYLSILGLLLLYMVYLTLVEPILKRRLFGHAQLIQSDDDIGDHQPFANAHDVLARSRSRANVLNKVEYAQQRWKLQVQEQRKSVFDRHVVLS
UniProt Q9BRN9: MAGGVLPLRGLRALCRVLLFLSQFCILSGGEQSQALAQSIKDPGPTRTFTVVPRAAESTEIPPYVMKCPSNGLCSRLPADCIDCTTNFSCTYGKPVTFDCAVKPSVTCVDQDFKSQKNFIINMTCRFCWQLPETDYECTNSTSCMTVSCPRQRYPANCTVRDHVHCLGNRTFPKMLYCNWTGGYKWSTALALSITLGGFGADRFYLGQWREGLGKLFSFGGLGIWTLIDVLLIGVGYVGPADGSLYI
UniProt P11388: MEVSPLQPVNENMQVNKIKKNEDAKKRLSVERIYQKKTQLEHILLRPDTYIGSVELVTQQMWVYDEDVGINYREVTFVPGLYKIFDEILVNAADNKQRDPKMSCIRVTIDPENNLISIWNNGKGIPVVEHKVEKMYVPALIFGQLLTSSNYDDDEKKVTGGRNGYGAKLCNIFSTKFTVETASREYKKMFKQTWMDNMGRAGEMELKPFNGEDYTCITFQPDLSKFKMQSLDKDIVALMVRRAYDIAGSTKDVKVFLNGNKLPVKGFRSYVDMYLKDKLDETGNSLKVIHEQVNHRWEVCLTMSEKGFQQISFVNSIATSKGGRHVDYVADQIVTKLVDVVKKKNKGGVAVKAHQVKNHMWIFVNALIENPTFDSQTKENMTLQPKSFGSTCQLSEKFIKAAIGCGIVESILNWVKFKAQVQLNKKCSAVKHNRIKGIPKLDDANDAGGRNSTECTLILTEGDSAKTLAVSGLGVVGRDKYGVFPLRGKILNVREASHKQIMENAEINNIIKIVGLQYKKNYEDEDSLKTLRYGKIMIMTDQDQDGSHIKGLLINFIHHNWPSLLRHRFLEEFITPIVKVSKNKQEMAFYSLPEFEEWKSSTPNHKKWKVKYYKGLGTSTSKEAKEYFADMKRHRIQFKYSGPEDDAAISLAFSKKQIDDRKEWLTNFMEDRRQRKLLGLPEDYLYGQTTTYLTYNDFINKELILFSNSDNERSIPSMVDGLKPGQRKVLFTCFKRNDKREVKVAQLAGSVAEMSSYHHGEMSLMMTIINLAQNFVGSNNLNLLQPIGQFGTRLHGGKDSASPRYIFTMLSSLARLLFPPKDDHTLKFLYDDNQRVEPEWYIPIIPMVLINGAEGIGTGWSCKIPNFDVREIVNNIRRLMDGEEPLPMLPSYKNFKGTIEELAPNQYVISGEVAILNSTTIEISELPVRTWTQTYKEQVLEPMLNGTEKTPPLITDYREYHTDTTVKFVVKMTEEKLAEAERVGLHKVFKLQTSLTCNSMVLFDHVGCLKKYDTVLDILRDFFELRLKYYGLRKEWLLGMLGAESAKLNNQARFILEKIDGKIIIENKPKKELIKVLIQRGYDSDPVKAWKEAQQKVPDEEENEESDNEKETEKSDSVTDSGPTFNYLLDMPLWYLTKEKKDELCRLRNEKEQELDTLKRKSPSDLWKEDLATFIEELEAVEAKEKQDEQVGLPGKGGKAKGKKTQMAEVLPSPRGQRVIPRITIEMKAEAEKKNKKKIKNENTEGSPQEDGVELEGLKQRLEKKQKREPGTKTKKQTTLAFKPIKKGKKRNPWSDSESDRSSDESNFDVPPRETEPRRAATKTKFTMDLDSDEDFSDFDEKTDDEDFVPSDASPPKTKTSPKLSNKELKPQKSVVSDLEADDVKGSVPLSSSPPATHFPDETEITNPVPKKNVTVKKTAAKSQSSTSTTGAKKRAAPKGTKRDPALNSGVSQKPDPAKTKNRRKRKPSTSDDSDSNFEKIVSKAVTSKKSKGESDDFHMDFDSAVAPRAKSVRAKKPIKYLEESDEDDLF
UniProt P57088: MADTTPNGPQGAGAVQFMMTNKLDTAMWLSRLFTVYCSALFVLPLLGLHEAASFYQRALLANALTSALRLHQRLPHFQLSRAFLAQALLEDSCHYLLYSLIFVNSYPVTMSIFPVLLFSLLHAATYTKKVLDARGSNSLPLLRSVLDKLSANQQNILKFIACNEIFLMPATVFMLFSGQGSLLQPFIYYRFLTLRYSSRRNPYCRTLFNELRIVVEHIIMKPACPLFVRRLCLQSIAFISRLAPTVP
UniProt Q02880: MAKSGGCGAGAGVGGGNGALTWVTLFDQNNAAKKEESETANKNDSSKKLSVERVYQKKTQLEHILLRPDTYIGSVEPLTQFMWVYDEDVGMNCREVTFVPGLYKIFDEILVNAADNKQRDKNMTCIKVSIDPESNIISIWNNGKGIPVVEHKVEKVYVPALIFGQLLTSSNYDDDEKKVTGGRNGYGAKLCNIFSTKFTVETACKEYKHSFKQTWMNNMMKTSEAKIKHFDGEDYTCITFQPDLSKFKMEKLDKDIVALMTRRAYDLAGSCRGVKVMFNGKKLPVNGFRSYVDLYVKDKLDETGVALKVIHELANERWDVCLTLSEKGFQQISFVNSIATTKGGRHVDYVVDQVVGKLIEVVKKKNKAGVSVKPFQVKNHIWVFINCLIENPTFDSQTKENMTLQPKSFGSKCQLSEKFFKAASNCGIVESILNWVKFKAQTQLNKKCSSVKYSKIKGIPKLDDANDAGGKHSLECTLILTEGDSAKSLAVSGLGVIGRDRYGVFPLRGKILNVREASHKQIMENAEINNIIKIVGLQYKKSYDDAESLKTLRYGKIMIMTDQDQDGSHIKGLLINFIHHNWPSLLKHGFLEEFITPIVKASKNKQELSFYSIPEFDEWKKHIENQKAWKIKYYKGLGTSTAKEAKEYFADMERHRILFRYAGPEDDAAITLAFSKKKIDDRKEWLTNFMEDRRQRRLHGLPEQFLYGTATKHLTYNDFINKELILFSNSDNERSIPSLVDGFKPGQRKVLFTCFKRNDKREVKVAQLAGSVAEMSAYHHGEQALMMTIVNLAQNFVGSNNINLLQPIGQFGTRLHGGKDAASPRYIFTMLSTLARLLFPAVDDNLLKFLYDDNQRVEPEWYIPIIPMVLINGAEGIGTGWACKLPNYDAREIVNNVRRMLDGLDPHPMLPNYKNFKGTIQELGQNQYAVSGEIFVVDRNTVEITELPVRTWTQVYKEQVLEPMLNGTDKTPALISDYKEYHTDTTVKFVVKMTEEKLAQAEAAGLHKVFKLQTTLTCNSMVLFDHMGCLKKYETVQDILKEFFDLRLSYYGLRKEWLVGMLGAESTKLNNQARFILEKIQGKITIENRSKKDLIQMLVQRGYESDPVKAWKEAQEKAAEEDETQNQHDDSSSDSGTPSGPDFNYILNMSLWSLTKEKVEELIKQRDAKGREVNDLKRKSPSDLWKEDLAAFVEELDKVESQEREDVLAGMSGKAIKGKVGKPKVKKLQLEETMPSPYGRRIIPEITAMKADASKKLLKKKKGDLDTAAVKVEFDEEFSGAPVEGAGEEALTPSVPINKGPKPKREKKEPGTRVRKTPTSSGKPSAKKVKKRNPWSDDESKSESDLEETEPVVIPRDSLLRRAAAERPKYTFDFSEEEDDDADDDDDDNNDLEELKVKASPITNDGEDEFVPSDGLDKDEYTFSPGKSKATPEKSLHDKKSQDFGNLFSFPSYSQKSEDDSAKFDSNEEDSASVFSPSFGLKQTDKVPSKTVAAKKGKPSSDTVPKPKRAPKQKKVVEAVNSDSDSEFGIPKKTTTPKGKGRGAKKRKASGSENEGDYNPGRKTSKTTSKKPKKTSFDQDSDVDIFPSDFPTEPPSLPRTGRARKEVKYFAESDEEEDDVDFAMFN
UniProt Q96HA7: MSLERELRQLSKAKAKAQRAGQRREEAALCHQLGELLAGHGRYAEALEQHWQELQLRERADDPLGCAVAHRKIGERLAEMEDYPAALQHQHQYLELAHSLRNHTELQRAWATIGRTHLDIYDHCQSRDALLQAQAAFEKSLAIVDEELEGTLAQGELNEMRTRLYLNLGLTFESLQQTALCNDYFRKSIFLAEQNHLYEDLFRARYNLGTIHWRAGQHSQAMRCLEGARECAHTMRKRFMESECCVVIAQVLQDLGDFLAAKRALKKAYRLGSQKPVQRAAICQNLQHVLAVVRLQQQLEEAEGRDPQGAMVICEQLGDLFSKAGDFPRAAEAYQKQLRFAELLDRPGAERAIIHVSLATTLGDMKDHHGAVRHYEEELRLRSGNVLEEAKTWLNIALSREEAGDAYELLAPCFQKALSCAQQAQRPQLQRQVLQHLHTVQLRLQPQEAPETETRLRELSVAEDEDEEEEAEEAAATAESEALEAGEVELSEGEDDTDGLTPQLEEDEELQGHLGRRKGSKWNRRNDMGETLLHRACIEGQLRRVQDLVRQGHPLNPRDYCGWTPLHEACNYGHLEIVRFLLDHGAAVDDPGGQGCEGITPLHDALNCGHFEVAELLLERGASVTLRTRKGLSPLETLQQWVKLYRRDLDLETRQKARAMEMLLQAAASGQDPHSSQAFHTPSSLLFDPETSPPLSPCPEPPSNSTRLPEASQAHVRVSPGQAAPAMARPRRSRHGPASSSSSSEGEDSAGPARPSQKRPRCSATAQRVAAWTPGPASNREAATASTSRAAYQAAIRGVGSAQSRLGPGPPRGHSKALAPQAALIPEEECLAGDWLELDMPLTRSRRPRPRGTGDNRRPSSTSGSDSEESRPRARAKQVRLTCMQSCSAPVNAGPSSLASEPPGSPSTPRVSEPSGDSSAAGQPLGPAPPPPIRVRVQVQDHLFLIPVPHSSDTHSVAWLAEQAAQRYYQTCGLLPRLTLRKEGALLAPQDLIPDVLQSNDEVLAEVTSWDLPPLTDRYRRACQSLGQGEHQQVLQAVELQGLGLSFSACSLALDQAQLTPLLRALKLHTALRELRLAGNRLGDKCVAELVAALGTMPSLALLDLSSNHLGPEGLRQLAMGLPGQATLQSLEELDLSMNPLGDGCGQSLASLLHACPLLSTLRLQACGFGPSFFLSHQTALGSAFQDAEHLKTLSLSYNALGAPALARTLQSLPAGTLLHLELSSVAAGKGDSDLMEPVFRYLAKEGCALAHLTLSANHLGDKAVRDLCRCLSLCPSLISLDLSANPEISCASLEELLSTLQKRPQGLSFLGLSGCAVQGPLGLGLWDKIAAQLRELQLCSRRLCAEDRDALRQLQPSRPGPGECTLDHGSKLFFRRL
UniProt Q12767: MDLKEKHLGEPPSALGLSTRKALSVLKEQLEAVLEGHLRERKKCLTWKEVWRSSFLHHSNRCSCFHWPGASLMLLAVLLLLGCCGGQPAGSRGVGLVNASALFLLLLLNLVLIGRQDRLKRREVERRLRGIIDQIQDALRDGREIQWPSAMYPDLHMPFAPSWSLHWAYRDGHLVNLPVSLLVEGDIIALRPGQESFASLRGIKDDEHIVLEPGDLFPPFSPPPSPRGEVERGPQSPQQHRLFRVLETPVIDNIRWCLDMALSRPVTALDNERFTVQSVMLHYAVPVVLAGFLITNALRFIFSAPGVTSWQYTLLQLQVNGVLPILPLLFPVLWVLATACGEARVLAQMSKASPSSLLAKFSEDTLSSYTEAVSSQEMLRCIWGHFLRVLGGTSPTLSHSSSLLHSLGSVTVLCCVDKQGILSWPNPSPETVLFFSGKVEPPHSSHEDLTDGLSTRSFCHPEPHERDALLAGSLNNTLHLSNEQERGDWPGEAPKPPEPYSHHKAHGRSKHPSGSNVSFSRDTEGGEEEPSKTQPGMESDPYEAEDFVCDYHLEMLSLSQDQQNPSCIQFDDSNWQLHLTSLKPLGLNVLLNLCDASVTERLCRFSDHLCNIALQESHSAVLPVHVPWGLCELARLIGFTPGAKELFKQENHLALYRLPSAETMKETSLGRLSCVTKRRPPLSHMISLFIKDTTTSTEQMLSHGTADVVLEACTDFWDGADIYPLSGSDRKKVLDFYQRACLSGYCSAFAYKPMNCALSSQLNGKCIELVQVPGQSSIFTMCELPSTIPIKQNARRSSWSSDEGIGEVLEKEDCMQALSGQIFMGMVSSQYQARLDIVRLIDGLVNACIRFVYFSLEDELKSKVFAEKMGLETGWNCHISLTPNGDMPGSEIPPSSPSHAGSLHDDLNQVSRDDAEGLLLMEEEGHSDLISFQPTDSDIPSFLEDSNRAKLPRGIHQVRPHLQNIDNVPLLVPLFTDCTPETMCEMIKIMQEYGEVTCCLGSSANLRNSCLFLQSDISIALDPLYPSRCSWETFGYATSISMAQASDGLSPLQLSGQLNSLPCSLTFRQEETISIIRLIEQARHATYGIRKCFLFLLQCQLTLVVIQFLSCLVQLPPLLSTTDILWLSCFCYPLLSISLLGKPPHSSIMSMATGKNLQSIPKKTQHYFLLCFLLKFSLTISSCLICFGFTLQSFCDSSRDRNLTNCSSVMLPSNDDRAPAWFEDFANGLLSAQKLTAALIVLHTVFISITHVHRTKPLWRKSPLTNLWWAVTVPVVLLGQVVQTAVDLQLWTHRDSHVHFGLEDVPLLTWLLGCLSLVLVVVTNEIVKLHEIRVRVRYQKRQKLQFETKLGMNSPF

Compound: Cc1cc(ccc1-c1ccccc1)C(=O)N1CCCN(CC1)C(=O)CCl [compound 10]
Experiment: probe-labelled cysteine peptide fold change vs DMSO (competition) (log2 fold change); higher = less target engagement (more negative = stronger competition)
Settings: 10 µM; THP-1; incubation time: 4 h
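Further: competitive profiling in live THP-1 cells: cysteine peptides tagged with an iodoacetamide desthiobiotin (IA-DTB) probe, intensity after compound treatment relative to DMSO-treated cells.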

| Target | probe-labelled cysteine peptide fold change |
| --- | --- |
| TOMM70_O94826_144_YEQAIQCYTEAISLCPTEK (UniProt O94826) | -0.0548 |
| TOMM70_O94826_588_SEMEMAHLYSLCDAAHAQTEVAKK (UniProt O94826) | -0.0371 |
| TOR2A_Q5JU69_54_CTLGAFCECDFRPDLPGLECDLAQHLAGQHLAK (UniProt Q5JU69) | -0.184 |
| TMUB2_Q71RG4_236+240_SLNITDNCVIHCHR (UniProt Q71RG4) | -0.0247 |
| TNS3_Q68CZ2_615_CPADNPGLVQAQPR (UniProt Q68CZ2) | -0.159 |
| TMEM9B_Q9NQ34_86_GPDVEAYCLR (UniProt Q9NQ34) | 0.155 |
| TM2D3_Q9BRN9_166_DHVHCLGNR (UniProt Q9BRN9) | -0.374 |
| TOLLIP_Q9H0E2_106_VIHCTVPPGVDSFYLEIFDER (UniProt Q9H0E2) | 0.0754 |
| TNPO1_Q92973_683_SNILTLMYQCMQDK (UniProt Q92973) | 0.0805 |
| TOPBP1_Q92547_1284_IDYCHLIEK (UniProt Q92547) | 0.108 |
| TOP2A_P11388_1145_KDELCR (UniProt P11388) | -0.202 |
| TNFAIP2_Q03169_429_ANVIANINNCLSFR (UniProt Q03169) | -0.0434 |
| TOP3B_O95985_126_EGENICFEVLDAVLPVMNK (UniProt O95985) | 0.0623 |
| TOR2A_Q5JU69_271_HCVLNELAQLGLEPR (UniProt Q5JU69) | 0.238 |
| TLN1_Q9Y490_236+243_ACEFAGFQCQIQFGPHNEQK (UniProt Q9Y490) | -0.12 |
| TMEM33_P57088_232_LCLQSIAFISR (UniProt P57088) | -0.119 |
| TOP2A_P11388_733_KVLFTCFK (UniProt P11388) | -0.123 |
| TNPO2_O14787_789_LGYVCPQEVAPMLQQFIR (UniProt O14787) | -0.0982 |

| Target | probe-labelled cysteine peptide fold change |
| --- | --- |
| TMPPE_Q6ZT21_358_ALEGCSPDHTIILLAHQPLAAK (UniProt Q6ZT21) | -0.103 |
| TOP2B_Q02880_204_FTVETACK (UniProt Q02880) | -0.203 |
| TOB2_Q14106_120_VLYLDDSEGCGAPELDK (UniProt Q14106) | -0.293 |
| TONSL_Q96HA7_1345_LCAEDRDALR (UniProt Q96HA7) | -0.18 |
| TMEM33_P57088_204_RNPYCR (UniProt P57088) | 0.126 |
| TOP2A_P11388_216_AGEMELKPFNGEDYTCITFQPDLSK (UniProt P11388) | 0.0987 |
| TOP3B_O95985_36_GLNGACSVHEYTGTFAGQPVR (UniProt O95985) | -0.0161 |
| TP53BP2_Q13625_1083_EGDCMTIIHREDEDEIEWWWAR (UniProt Q13625) | -0.135 |
| TP53I3_Q53FA7_76_QGQYDPPPGASNILGLEASGHVAELGPGCQGHWK (UniProt Q53FA7) | 0.0859 |
| TMEM94_Q12767_381_CIWGHFLR (UniProt Q12767) | 0.0561 |
| TMEM260_Q9NX78_647_NYAIACER (UniProt Q9NX78) | 0.0142 |
| TOP2B_Q02880_426_AASNCGIVESILNWVK (UniProt Q02880) | -0.047 |
| TOP2A_P11388_1008_LQTSLTCNSMVLFDHVGCLK (UniProt P11388) | -0.204 |
| TONSL_Q96HA7_314_LQQQLEEAEGRDPQGAMVICEQLGDLFSK (UniProt Q96HA7) | -0.0344 |
| TMED8_Q6PL24_161_VSPPLMAPPCIWTFAK (UniProt Q6PL24) | -0.102 |
| TLR6_Q9Y2C9_672_EDIQICLHER (UniProt Q9Y2C9) | 0.00901 |
| TMPO_P42166_518_QLPSLACK (UniProt P42166) | 0.0286 |
| TOP3B_O95985_58_MTSVCGHVMTLDFLGK (UniProt O95985) | 0.0443 |

Same assay, conditions: 50 µM; THP-1; incubation time: 4 h

| Target | probe-labelled cysteine peptide fold change |
| --- | --- |
| TOMM70_O94826_144_YEQAIQCYTEAISLCPTEK (UniProt O94826) | 0.165 |
| TOMM70_O94826_588_SEMEMAHLYSLCDAAHAQTEVAKK (UniProt O94826) | -0.208 |
| TOR2A_Q5JU69_54_CTLGAFCECDFRPDLPGLECDLAQHLAGQHLAK (UniProt Q5JU69) | 0.309 |
| TMUB2_Q71RG4_236+240_SLNITDNCVIHCHR (UniProt Q71RG4) | -0.64 |
| TNS3_Q68CZ2_615_CPADNPGLVQAQPR (UniProt Q68CZ2) | -0.576 |
| TMEM9B_Q9NQ34_86_GPDVEAYCLR (UniProt Q9NQ34) | 0.228 |
| TM2D3_Q9BRN9_166_DHVHCLGNR (UniProt Q9BRN9) | -0.241 |
| TOLLIP_Q9H0E2_106_VIHCTVPPGVDSFYLEIFDER (UniProt Q9H0E2) | -0.0973 |
| TNPO1_Q92973_683_SNILTLMYQCMQDK (UniProt Q92973) | 0.018 |
| TOPBP1_Q92547_1284_IDYCHLIEK (UniProt Q92547) | -0.108 |
| TOP2A_P11388_1145_KDELCR (UniProt P11388) | 0.104 |
| TNFAIP2_Q03169_429_ANVIANINNCLSFR (UniProt Q03169) | 0.184 |
| TOP3B_O95985_126_EGENICFEVLDAVLPVMNK (UniProt O95985) | 0.0823 |
| TOR2A_Q5JU69_271_HCVLNELAQLGLEPR (UniProt Q5JU69) | 0.0467 |
| TLN1_Q9Y490_236+243_ACEFAGFQCQIQFGPHNEQK (UniProt Q9Y490) | -0.0867 |
| TMEM33_P57088_232_LCLQSIAFISR (UniProt P57088) | 0.551 |
| TOP2A_P11388_733_KVLFTCFK (UniProt P11388) | -0.721 |
| TNPO2_O14787_789_LGYVCPQEVAPMLQQFIR (UniProt O14787) | 0.226 |

| Target | probe-labelled cysteine peptide fold change |
| --- | --- |
| TMPPE_Q6ZT21_358_ALEGCSPDHTIILLAHQPLAAK (UniProt Q6ZT21) | 0.284 |
| TOP2B_Q02880_204_FTVETACK (UniProt Q02880) | 0.0132 |
| TOB2_Q14106_120_VLYLDDSEGCGAPELDK (UniProt Q14106) | 0.037 |
| TONSL_Q96HA7_1345_LCAEDRDALR (UniProt Q96HA7) | -0.183 |
| TMEM33_P57088_204_RNPYCR (UniProt P57088) | 0.387 |
| TOP2A_P11388_216_AGEMELKPFNGEDYTCITFQPDLSK (UniProt P11388) | -0.0773 |
| TOP3B_O95985_36_GLNGACSVHEYTGTFAGQPVR (UniProt O95985) | 0.0165 |
| TP53BP2_Q13625_1083_EGDCMTIIHREDEDEIEWWWAR (UniProt Q13625) | -0.0598 |
| TP53I3_Q53FA7_76_QGQYDPPPGASNILGLEASGHVAELGPGCQGHWK (UniProt Q53FA7) | -0.0266 |
| TMEM94_Q12767_381_CIWGHFLR (UniProt Q12767) | -0.131 |
| TMEM260_Q9NX78_647_NYAIACER (UniProt Q9NX78) | 0.269 |
| TOP2B_Q02880_426_AASNCGIVESILNWVK (UniProt Q02880) | -0.0099 |
| TOP2A_P11388_1008_LQTSLTCNSMVLFDHVGCLK (UniProt P11388) | -0.0237 |
| TONSL_Q96HA7_314_LQQQLEEAEGRDPQGAMVICEQLGDLFSK (UniProt Q96HA7) | -0.187 |
| TMED8_Q6PL24_161_VSPPLMAPPCIWTFAK (UniProt Q6PL24) | -0.298 |
| TLR6_Q9Y2C9_672_EDIQICLHER (UniProt Q9Y2C9) | -0.000825 |
| TMPO_P42166_518_QLPSLACK (UniProt P42166) | -0.25 |
| TOP3B_O95985_58_MTSVCGHVMTLDFLGK (UniProt O95985) | 0.179 |
